In patent US7265096B2 (XenoPort, Inc., priority 2002, dated 2007):
Some of these results come from one statement about several compounds together.

Columns and labels:
[1] = test system: CNT1 and/or CNT3; experiment: Electrogenic transport currents in Xenopus oocytes expressing CNT1 or CNT3; assay type: cell-based, human; settings: tested at 1 mM on oocytes expressing either CNT1 or CNT3; significantly above background
[2] = test system: PEPT1 or PEPT2; experiment: Electrogenic transport currents in Xenopus oocytes expressing PEPT1 or PEPT2; assay type: cell-based, rat and human; settings: tested at 1 mM on oocytes expressing either PEPT1 or PEPT2; significantly above background

SMILES | CNT1 and/or CNT3-specific current, % of Imax for uridine [1] | PEPT-specific current, % of Imax for Gly-Sar [2]
CN(C)CCOC(=O)Nc1ccn([C@@H]2O[C@H](CO)[C@@H](O)C2(F)F)c(=O)n1 [Compound 60, β-1-[4-(2-Dimethylamino-ethoxycarbonylamino)-2-oxo-1H-pyrimidin-1-yl]-2-deoxy-2,2-difluororibose] | at least 5 % of Imax for uridine | –
CCOC(=O)Nc1ccn([C@@H]2O[C@H](CO)[C@@H](O)C2(F)F)c(=O)n1 [Compound 11, β-1-(4-Ethoxycarbonylamino-2-oxo-1H-pyrimidin-1-yl)-2-deoxy-2,2-difluororibose] | at least 5 % of Imax for uridine | –
Cc1ccccc1C(=O)OC(OC(=O)N(C)CCOC(=O)Nc1ccn(C2OC(CO)C(O)C2(F)F)c(=O)n1)C(C)C (centres unmarked) [Compound 82] | at least 5 % of Imax for uridine | –
O=C(Nc1ccn([C@@H]2O[C@H](CO)[C@@H](O)C2(F)F)c(=O)n1)OCC(F)(F)F [Compound 36, β-1-(4-(1,1,1-Trifluoroethyl)oxycarbonylamino-2-oxo-1H-pyrimidin-1-yl)-2-deoxy-2,2-difluororibose] | at least 5 % of Imax for uridine | –
CCCCCOC(=O)Nc1ccn([C@@H]2O[C@H](CO)[C@@H](O)C2(F)F)c(=O)n1 [Compound 26, β-1-(4-Pentyloxycarbonylamino-2-oxo-1H-pyrimidin-1-yl)-2-deoxy-2,2-difluororibose] | at least 5 % of Imax for uridine | –
CC(C)(C)C(=O)OC(OC(=O)NCCOC(=O)Nc1ccn([C@@H]2O[C@H](CO)[C@@H](O)C2(F)F)c(=O)n1)C(C)(C)C (some centres unmarked) [Compound 63] | at least 5 % of Imax for uridine | –
NC1(C(=O)N[C@@H](COC(=O)Nc2ccn([C@@H]3O[C@H](CO)[C@@H](O)C3(F)F)c(=O)n2)C(=O)O)CCCCC1 [Compound 52, β-1-{[4-((2S)-(1-Amino-cyclohexanecarbonylamino)-2-carboxy)ethoxycarbonylamino]-2-oxo-1H-pyrimidin-1-yl}-2-deoxy-2,2-difluororibose] | at least 5 % of Imax for uridine | –
C[C@H](N)C(=O)N[C@@H](COC(=O)Nc1ccn([C@@H]2O[C@H](CO)[C@@H](O)C2(F)F)c(=O)n1)C(=O)O [Compound 47, β-1-{[4-((2S)-((2S)-Aminopropionylamino)-2-carboxy)ethoxycarbonylamino]-2-oxo-1H-pyrimidin-1-yl}-2-deoxy-2,2-difluororibose] | – | at least 1 % of Imax for Gly-Sar
N[C@H](C(=O)N[C@@H](COC(=O)Nc1ccn([C@@H]2O[C@H](CO)[C@@H](O)C2(F)F)c(=O)n1)C(=O)O)c1ccccc1 [Compound 50, β-1-{[4-((2S)-((2S)-Aminophenacetylamino)-2-carboxy)ethoxycarbonylamino]-2-oxo-1H-pyrimidin-1-yl}-2-deoxy-2,2-difluororibose] | at least 5 % of Imax for uridine | –
CCOC(=O)Nc1ccn([C@@H]2O[C@H](COC(=O)[C@@H](N)C(C)C)[C@@H](O)C2(F)F)c(=O)n1 [Compound 18, β-1-(4-Ethoxycarbonylamino-2-oxo-1H-pyrimidin-1-yl)-5-O-(L-valinyl)-2-deoxy-2,2-difluororibose] | – | at least 1 % of Imax for Gly-Sar
C=C(C)OC(=O)Nc1ccn([C@@H]2O[C@H](CO)[C@@H](O)C2(F)F)c(=O)n1 [Compound 38, β-1-(4-(Propen-2-yl)oxycarbonylamino-2-oxo-1H-pyrimidin-1-yl)-2-deoxy-2,2-difluororibose] | at least 5 % of Imax for uridine | –
